Assay results published in the supplement of paper PMC7125110.
± gives the standard error. Many of these values have a large error.

B1: glmS ribozyme (parent)
chain: AUAAAAGCGCCAGAACUACAGAAAUGUAGUUGACGAGGAGGAGGUUUAUCGAAUUUUCGGCGGAUGCCUCCAAA

Variants of: B1
Test: self-cleavage kobs at 40 uM GlcN6P; higher = faster cleavage; RNA array
Conditions: with glucosamine-6-phosphate
Method in brief: (§1)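 Barcoded glmS ribozyme variants on sequenced MiSeq chips were transcribed in situ by E. coli RNA polymerase and tracked through a hybridised Cy3 probe at 37 °C. Glucosamine-6-phosphate (40 μM to 10 mM) in HEPES/KCl/Mg(OAc)2 buffer was flowed in, and tiles were imaged over ~14 h. Signals were normalised to baseline and to non-cleaving reference variants; per-tile medians were fit to one- or two-exponential decays to give kobs. kcat and KM came from weighted Michaelis–Menten fits across concentrations.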

Variant	self-cleavage kobs at 40 uM GlcN6P [s⁻¹]
A14U G35U C50U C58G G62U C71G	6.61e-05 ± 5e-05
U31C G40A	1.7e-05 ± 1.1e-05
G13C G51U C68G	2.39e-05 ± 2.1e-05
G7C A14G C50G	3.35e-05 ± 2.3e-05
G9C U65A C68G	4.11e-05 ± 2.4e-05
A12G A42U U69A	2.49e-05 ± 1.6e-05
U54A U65G C67U	3.8e-05 ± 2.2e-05
C8A G13A G37U C67U C68U	4.58e-05 ± 2.4e-05
A12G C71U	< 1e-05
C11U A15C	1.58e-05 ± 9e-06
G13A G32U G38C U69G	3.18e-05 ± 2e-05
A15G U30G G40U	1.51e-05 ± 1.5e-05
C16A U69G	1.81e-05 ± 1.2e-05
C11U G29A C70A	4.75e-05 ± 2.5e-05
A15U A48G U55G C68G C70A	4.59e-05 ± 3.6e-05
C11U C50A C70U	4.94e-05 ± 2.5e-05
A14C G32A G38A C50U	3.27e-05 ± 3e-05
G32U A52G C70A	2.69e-05 ± 2.4e-05
U65G U69C	1.9e-05 ± 1e-05
C8U U54A U55A C67G	4.52e-05 ± 3.6e-05

Variant	self-cleavage kobs at 40 uM GlcN6P [s⁻¹]
C10G A39G G66A C67U C71G	3.32e-05 ± 2.6e-05
A14U G32U	1.03e-05 ± 9e-06
G66U C68G	1.53e-05 ± 1.3e-05
G7A U30G C70G C71G	5.58e-05 ± 3e-05
C11U U30C C50U C67A	7.47e-05 ± 4.5e-05
A36G A52G C68G	2.27e-05 ± 1.8e-05
A1U G41U C70G C71U	2.6e-05 ± 2.2e-05
A12G C58A C70G	3.14e-05 ± 1.9e-05
A6C C50G U65A	4.58e-05 ± 2.7e-05
G29U C67A C70A	3.11e-05 ± 2.3e-05
U56G C58G C68G	3.22e-05 ± 2.8e-05
A53G C61U C68G	3.84e-05 ± 2.9e-05
G32A C50U C70A	2.4e-05 ± 2.1e-05
G38A A48G U56A C68G	2.85e-05 ± 2.8e-05
U57A C67G C68U C70U	2.97e-05 ± 2.3e-05
A15U U46G	1.63e-05 ± 1.2e-05
C11A U69G C71G	5.17e-05 ± 2.9e-05
G32A C50U C67U C71A	4.16e-05 ± 2.2e-05
A12C U46A	2.04e-05 ± 1.2e-05
A14C U47A A52G G66C U69G C70A	3.82e-05 ± 2.3e-05

Variant	self-cleavage kobs at 40 uM GlcN6P [s⁻¹]
C58A C67G	2.07e-05 ± 1.4e-05
U45G U69G	3.69e-05 ± 3.1e-05
U57G C58G C68U	2.9e-05 ± 2.5e-05
C11A C67G	2.33e-05 ± 1.6e-05
G32A U55C	1.88e-05 ± 1e-05
A39G G59A C61U C68G	3.41e-05 ± 2.7e-05
G7U G9U C11G A12G U47G C67G C68U C70A	3.1e-05 ± 2e-05
U54A U69A	2.42e-05 ± 1.2e-05
G13U U55C	1.69e-05 ± 1.1e-05
C50G U57C G66A	2.64e-05 ± 2.3e-05
C50A U57G U65C C70G	2.92e-05 ± 2.8e-05
U17A A18C C19A A20G A52G U57G C67A	5.02e-05 ± 2.6e-05
G9A C10G U69G	0.000533 ± 0.00027
G40C U46G	1.18e-05 ± 1.1e-05
G32U C70G	1.5e-05 ± 1.3e-05
C16U A53G U69G	4.11e-05 ± 3e-05
G44U A53G	2.51e-05 ± 2.2e-05
A36U G40A G43C A52G	6.58e-05 ± 3.4e-05
A12U C58G	2.54e-05 ± 1.3e-05
C16G C34G A39U G66C C70G	3.11e-05 ± 2.5e-05

Variants of: B1
Test: KM; higher = weaker cofactor use; RNA array
Conditions: with glucosamine-6-phosphate
Method in brief: as §1

Variant	KM [µM]
G38U	54.5 ± 39
C71G	1460 ± 470
U49C C61U	114 ± 94
U55A U57A	452 ± 410
U65C G66A	3960 ± 2300
C68U C71A	89.6 ± 72
C50A U55C	897 ± 650
U55C U56C	1590 ± 1000
U46G G66A C70G	1040 ± 830
U65C	1690 ± 310
G37A G44U A53U	2030 ± 1800
C50U A53C U54G	48.8 ± 27
A42G U57G	514 ± 77
G40A G66A	3050 ± 1800
A53C U56G	1830 ± 570
U65G U69C	6890 ± 3800
U45A A48C	2130 ± 560
A39U U54G	1320 ± 760
U49G U56C	352 ± 280
A39U G44U	805 ± 540
C50A U54G	314 ± 190
G44U U65G	12800 ± 1400
C61U G63C	50.7 ± 35
A53G C67G	2380 ± 1200
U47G C67A	488 ± 380
A39C A48G U55C	12400 ± 1500
U54C U57A	4630 ± 3800

Variant	KM [µM]
U56C C58A	6170 ± 3600
G41A U56A	1110 ± 630
G41A U56G	1740 ± 310
A53U C70A	79.6 ± 43
A39C C70U	1210 ± 530
U69C C70U	854 ± 350
U47G C70U	45.7 ± 30
A39U U55G	1130 ± 760
C50U G66A	20000 ± 12000
U56G A64C	1500 ± 420
U56G A64U	4710 ± 2700
A39U C58U	440 ± 240
A53G U65G	1310 ± 750
G44U A64G	1820 ± 1400
A53C G60A	7110 ± 2300
A53G G59A	4360 ± 1300
U69A C70U	166 ± 84
G40C U56C	1990 ± 1300
C67U C71U	2810 ± 1700
A42G C58A	2480 ± 390
U47G U56C A64G	1500 ± 480
A52U G66A	30400 ± 17000
U55G C71U	280 ± 250
G43A C70U	1370 ± 970
C58A C67G	315 ± 310
U45G U69G	2570 ± 2200
U46C U65G	1700 ± 970

Variant	KM [µM]
G41U U46C	676 ± 50
G40C U45A	823 ± 200
G40C U45G	1120 ± 830
G41U A53C	2500 ± 1600
G41C U54A	384 ± 360
G40A U56C	2280 ± 720
U45G U46G	4120 ± 2300
U45A C50U	34700 ± 17000
G41C U46A	3110 ± 830
U54A U69A	65.2 ± 58
U56A G60A	985 ± 710
U46G A48U	1370 ± 770
A39U A53C	2890 ± 1100
U55C C58G	11700 ± 1200
C61G C68U	313 ± 310
G44A G66U	2150 ± 520
A39G G59A	2250 ± 1700
A42G G43A	1440 ± 500
G37C U49G	3030 ± 2600
A48U G66U	1230 ± 730
A64G	2080 ± 150
U45A G66A	527 ± 280
A52C U54A	368 ± 130
G44U A53U	1460 ± 1400
G41C U47C	708 ± 690
A39C U46G	2000 ± 420

Variants of: B1
Test: self-cleavage kobs at 2500 uM GlcN6P; higher = faster cleavage; RNA array
Conditions: with glucosamine-6-phosphate
Method in brief: as §1

Variant	self-cleavage kobs at 2500 uM GlcN6P [s⁻¹]
G13C G51U C68G	0.000628 ± 0.00063
G9C U65A C68G	4.97e-05 ± 2.7e-05
C68U C71A	1.12e-05 ± 8.7e-06
C8A G13A G37U C67U C68U	3.62e-05 ± 1.9e-05
A15U A48G U55G C68G C70A	3.27e-05 ± 2.9e-05
C50A U54G	2.13e-05 ± 1.3e-05
A53U C70A	0.00126 ± 0.00084
C50U G66A	1.35e-05 ± 1.2e-05
A39U C58U	1.77e-05 ± 1.7e-05
U45G U69G	7.41e-05 ± 3.8e-05
U57G C58G C68U	3.96e-05 ± 2.2e-05
U56A G60A	2.06e-05 ± 1.9e-05
C8U G62A	1.28e-05 ± 1.1e-05
A48U G66U	2.14e-05 ± 1.7e-05
G41C U47C	3.53e-05 ± 1.9e-05

Variants of: B1
Test: self-cleavage kobs at 160 uM GlcN6P; higher = faster cleavage; RNA array
Conditions: with glucosamine-6-phosphate
Method in brief: as §1

Variant	self-cleavage kobs at 160 uM GlcN6P [s⁻¹]
G9C U65A C68G	0.000225 ± 0.00014
G41A U56G	2.59e-05 ± 2.2e-05
U47G U56C A64G	2.52e-05 ± 2.2e-05

Variants of: B1
Test: self-cleavage kobs at 10000 uM GlcN6P; higher = faster cleavage; RNA array
Conditions: with glucosamine-6-phosphate
Method in brief: as §1

Variant	self-cleavage kobs at 10000 uM GlcN6P [s⁻¹]
C68U C71A	1.05e-05 ± 8.5e-06
C8A G13A G37U C67U C68U	2.92e-05 ± 2.1e-05
C16A U69G	0.00306 ± 0.0017
C11U C50A C70U	2.36e-05 ± 2.3e-05
A39U G44U	0.00948 ± 0.0081
G66U C68G	1.65e-05 ± 1e-05
C50A U54G	1.96e-05 ± 1.5e-05
C11U U30C C50U C67A	2.39e-05 ± 1.7e-05
A36G A52G C68G	1.82e-05 ± 1.7e-05
A53U C70A	0.0022 ± 0.0011
G32A C50U C70A	1.83e-05 ± 1.6e-05
A39U C58U	1.78e-05 ± 9e-06
G32A C50U C67U C71A	2.76e-05 ± 2.1e-05
A14C U47A A52G G66C U69G C70A	3.5e-05 ± 1.8e-05
A39G G59A C61U C68G	2.45e-05 ± 2.4e-05
C16G C34G A39U G66C C70G	2.68e-05 ± 2.1e-05

Variants of: B1
Test: self-cleavage kobs at 640 uM GlcN6P; higher = faster cleavage; RNA array
Conditions: with glucosamine-6-phosphate
Method in brief: as §1

Variant	self-cleavage kobs at 640 uM GlcN6P [s⁻¹]
C11U G29A C70A	4.26e-05 ± 3e-05
A42G U57G	2.61e-05 ± 2.1e-05
C8U G32U U46G C50G C70U	3.79e-05 ± 2e-05
A6C A12C	2.11e-05 ± 1.3e-05
G32A C50U C70A	4.23e-05 ± 3e-05
G7U C10U G37A C67A	3.14e-05 ± 2.5e-05
U56G A64U	2.22e-05 ± 2.1e-05
G32A C50U C67U C71A	5.23e-05 ± 3e-05
C11G U69C	2.54e-05 ± 2.1e-05
A52U G66A	2.05e-05 ± 1.1e-05
U45G U69G	4.86e-05 ± 3.4e-05
C11A U56C	2.54e-05 ± 2.1e-05
A6U C50U C68G C71A	9.64e-05 ± 4.9e-05
C8U G62A	2.54e-05 ± 1.7e-05
C11G U46G U54A C68G	4.3e-05 ± 3.1e-05
C8U A48C G51A U69A	5.14e-05 ± 2.6e-05
